Patent US11197914B2, “GLP-1R/GCGR dual target agonist polypeptide for treatment of fatty liver diseases, hyperlipemia and arteriosclerosis” (Shenzhen Turier Biotech Co., Ltd., priority 2016, dated 2021)
Not every detail of the peptide structures is certain; ends, links or a residue may be inferred.

Tests used:
[1] = system: Hepatic stellate cell strain LX-2; test: In vitro inhibition of hepatic fibrosis: expression of LX-2 cell activation marker α-SMA (Western Blot, α-SMA/β-actin); format: cell-based, human; settings: LX-2 cells; for Relative expression of α-SMA (α-SMA/β-actin, %): 48 hours, negative control = 100%
Experimental: Hepatic stellate cell strain LX-2 was selected to study and observe the effect of different doses of test substances on the expression of LX-2 cell activation marker […]. Hepatic stellate cell LX-2 was laid on 35 mm cell culture plate, cultured with DMEM (high glucose)+10% FBS+1% double-antibody culture medium (Thermo Fisher), placed overnight when the cells grew to 70% convergence at 37° C. and under the condition of 5% CO2, and treated with the above compounds 1-37 (dissolved in PBS) for 48 hours the next day morning to extract cell protein, carry out Western Blot, and take β-actin as internal reference and analyze the expression quantities of α-SMA and β-actin by a gray level of Image J 1.50i. PBS with the same volume as that in experimental group was added in negative control. […] The integrating gray level of α-SMA/β-actin in the negative control group was 100% to analyze the in vitro inhibition activity of hepatic fibrosis of tested polypeptide.

[2] = system: CCl4-induced hepatic fibrosis mice; test: CCl4-induced hepatic fibrosis in mice; format: in vivo, C57 mice; settings: 500 μg/kg subcutaneous once every two days, 6 weeks
Experimental: 6-8-week-old C57 mice with body weight of 20-25 g at SPF level were provided by Guangdong Medical Laboratory Animal Center and tested by SPF level laboratory in Laboratory Animal Center of Guangdong Pharmaceutical University. C57 mice were divided into control group, hepatic fibrosis model group and treatment group, 8 mice for each group. A mouse was subject to intraperitoneal injection with 20% CCl4 (2 mL/kg, diluted with olive oil at ratio of 1:4) twice a week for continuous 6 weeks to form a stable hepatic fibrosis animal model. For the treatment group, one of subcutaneous injection compounds 2, 6 and 22 with 500 μg/kg of body weight was used respectively once every two days for continuous 6 weeks. Olive oil with same volume and same frequency was administered for the control group and stopped until the end of 6-week experiment. After the end of the experiment, the mice were subject to anesthesia to collect serum and liver specimens. The liver was fixed with 10% formalin and embedded with paraffin.

[3] = system: high fat diet-induced hyperlipidemic mice; test: High fat diet-induced NAFLD and hyperlipemia in mice; format: in vivo, C57 mice; settings: 500 μg/kg subcutaneous once every two days, 12 weeks
Experimental: 6-8-week-old C57 mice with body weight of 20-25 g at SPF level were provided by Guangdong Medical Laboratory Animal Center and tested by SPF level laboratory in Laboratory Animal Center of Guangdong Pharmaceutical University. C57 mice were divided into control group, hepatic fibrosis model group and treatment group, 8 mice for each group. The mice were fed with high fat diet (HFD) for 12 weeks. For the treatment group, subcutaneous injection compounds 2 and 6 with 500 μg/kg of body weight were used once every two days for continuous 12 weeks. PBS with same volume and same frequency was administered for the control group. After the end of the experiment, the mice were subject to anesthesia to collect serum and liver specimens.

[4] = system: db/db diabetic obese mice; format: in vivo; settings: 10 μg/mouse subcutaneous once every two days, 18 days
Experimental: 12-week-old db/db diabetic obese mice were randomly grouped into 3 groups (12-hour fasting before grouping), 6 mice in each group. Mice in each group were injected subcutaneously at a dose of 10 μg/mouse, and mice in the blank group were injected subcutaneously with PBS. The volume for each group was 0.25 ml/mouse once every two days (at 48-hour interval) for 18 days. At the end of the experiment, blood was taken from the orbital venous plexus of each mouse to measure glycosylated hemoglobin (HbAlc), insulin (INS), triglyceride (TG) and total cholesterol (TC) levels in the serum of the mouse. The liver, pancreas, heart, lungs and spleen were taken for HE pathological staining at the same time. GraphPad Prismversion6 software was used for statistical analysis.

**Q.** What does the source list for CSCC[C@H](NC(=O)[C@H](CC(C)C)NC(=O)[C@H](Cc1c[nH]c2ccccc12)NC(=O)[C@H](CCC(N)=O)NC(=O)[C@@H](NC(=O)[C@H](Cc1ccccc1)NC(=O)[C@H](CC(=O)O)NC(=O)[C@H](CCC(N)=O)NC(=O)[C@H](C)NC(=O)[C@H](CCCNC(=N)N)NC(=O)[C@H](CCCNC(=N)N)NC(=O)C(C)(C)NC(=O)[C@H](CC(=O)O)NC(=O)[C@H](CC(C)C)NC(=O)[C@H](CCCCN)NC(=O)[C@H](CCCCNC(=O)CCOCCOCCNC(=O)CCOCCOCCNC(=O)CCCCCCCCCCCCCCCCC(=O)O)NC(=O)[C@H](CO)NC(=O)[C@H](Cc1ccc(O)cc1)NC(=O)[C@H](CC(=O)O)NC(=O)[C@H](CO)NC(=O)[C@@H](NC(=O)[C@H](Cc1ccccc1)NC(=O)[C@@H](NC(=O)CNC(=O)[C@H](CCC(N)=O)NC(=O)[C@@H](CO)NC(=O)[C@@H](N)Cc1c[nH]cn1)[C@@H](C)O)[C@@H](C)O)C(C)C)C(=O)N[C@@H](CC(N)=O)C(=O)N[C@H](C(=O)NCC(=O)NCC(=O)N1CCC[C@H]1C(=O)N[C@@H](CO)C(=O)N[C@@H](CO)C(=O)NCC(=O)N[C@@H](C)C(=O)N1CCC[C@H]1C(=O)N1CCC[C@H]1C(=O)N1CCC[C@H]1C(=O)N[C@@H](CO)C(N)=O)[C@@H](C)O [Compound 2]?
**A.** Inhibition of LX-2 cell activation marker α-SMA (in words, from Table 2) [1]: obviously reduce; Effect on expression of α-SMA (in words) ([1]; 0.1 μM, 1 μM and 5 μM): reduce the expression of α-SMA under all concentrations; Relative expression of α-SMA (α-SMA/β-actin, %) ([1]; 0.1 μM): 72.77%; Relative expression of α-SMA (α-SMA/β-actin, %) ([1]; 1 μM): 33.71%; Relative expression of α-SMA (α-SMA/β-actin, %) ([1]; 5 μM): 31.62%; ALT level of serum [2]: obviously reduce; CCl4-induced liver injury and fibrosis stage (HE, Sirius Red) [2]: obviously improved; Fatty liver complicated by hepatic fibrosis (Sirius red) [3]: effectively inhibit fatty liver complicated by hepatic fibrosis; HFD-induced increase of body weight [3]: effectively inhibit; Hepatic triglyceride (TG) content [3]: effectively reduce; Liver lipid deposition (Oil Red O) [3]: effectively reduce; Liver lipoid degeneration and non-alcoholic steatohepatitis (liver tissue biopsy) [3]: inhibit liver lipoid degeneration and non-alcoholic steatohepatitis; Treatment effect on liver lipid deposition and hepatic TG compared with Liraglutide [3]: obviously better than Liraglutide; Control of body weight, comparison between treatments ([3]; compared with liraglutide): equivalent to that of liraglutide; Atrophy lesions of pancreatic islets (HE staining) [4]: significantly improve; Liver lipoid vacuolar degeneration and lipid inflammation (HE staining) [4]: significantly inhibit; Total cholesterol (TC) level in serum [4]: obviously inhibit; Triglyceride (TG) level in serum [4]: obviously inhibit; Glycosylated hemoglobin (HbAlc) level in serum ([4]; vs blank group): significantly reduced; Insulin (INS) level in serum ([4]; vs blank group): up-regulated
